Reference: patent publication US20060121499A1, “Methods of identifying glucocorticoids without the detrimental side effects of bone loss” (priority 2004, published 2006)
At least one compound was matched to its structure with a doubt left.

What was measured:
MLO-Y4 osteocytic cells [1] = assay: Quantification of cell detachment (number of cytoplasmic processes) in MLO-Y4 cells; type: cell-based, murine
Procedure: (§1) Apoptosis was induced in semiconfluent cultures by treatment for the indicated times with the glucocorticoid, dexamethasone (10^−6 M, Sigma Chemical Co., St. Louis, Mo.) or with etoposide (50 μM, Sigma Chemical Co., St. Louis, Mo.). Inhibitors were added 30 minute before the addition of the pro-apoptotic agent at the following concentrations: the RNA synthesis inhibitor actinomycin D (2×10^−6M, Sigma Chemical Co., St. Louis, Mo.), the protein synthesis inhibitor cycloheximide (10^−6 M, Sigma Chemical Co., St. Louis, Mo.), the MEK inhibitor PD98059 (50 μM, New England Biolabs, Beverly, Mass.), the Src inhibitor PP1 (5 μM, BioSource International, Camarillo, Calif.), the p38 inhibitor SB203580 (10^−4 M, Sigma Chemical Co., St. Louis, Mo.), the P13K inhibitor wortmannin (30 nM, Sigma Chemical Co., St. Louis, Mo.), the JNK inhibitor SP600125 (3 μM, EMD Biosciences, Inc, San Diego, Calif.) or the caspase-3 inhibitor Asp-Glu-Val-Asp-aldehide (DEVD-CHO) (50 nM, Biomol Research Lab., Inc., Plymouth Meeting, Pa.).
The effect of dexamethasone or etoposide on cell detachment was quantified by enumerating the number of cytoplasmic processes of MLO-Y4 cells expressing GFP. Cells were classified as having 3 or less cytoplasmic processes or more than 3 cytoplasmic processes.
Apoptosis and cell attachment were determined in the same cultures by examining nuclear morphology (FIG. 2A) and quantifying the number of cytoplasmic processes (FIG. 2B), respectively. Apoptosis was determined by examining nuclear fragmentation and chromatin condensation and cell detachment by quantifying the number of cytoplasmic processes in the same cells. […] Although not shown here, this increase was at the expense of a decrease in the number of cells with more than three processes. (FIGS. 2C and 2D).

MLO-Y4 osteocytic cells [2] = assay: Quantification of apoptotic cells (nuclear morphology, nGFP) in MLO-Y4 osteocytic cells; type: cell-based, murine; details: for effect on dexamethasone (glucocorticoid)-induced apoptosis: inhibitor added 30 minute before dexamethasone 10^−6 M
Procedure: The murine long bone-derived osteocytic cell line MLO-Y4 was kindly provided by Dr. Lynda Bonewald (University of Missouri-Kansas City, Kansas City, Mo.). Cells were cultured in phenol red-free AMEM supplemented with 2.5% FBS, 2.5% bovine calf serum, 100 U/ml penicillin and 100 μg/ml streptomycin. Cells were plated at 1-2×10^4 cells/cm^2 on collagen type I (Sigma Chemical Co., St. Louis, Mo.) coated plates, as described previously (Kato,Y. et al., J. Bone Min.Res., 12:2014-2023 (1997)).
MLO-Y4 cells stably expressing nuclear green fluorescent protein (nGFP) were obtained using the retroviral vector containing the nGFP, provided by Dr. Charles O'Brien (University of Arkansas for Medical Sciences, Little Rock, Ark.). The SV40 large T antigen nuclear localization sequence (Kalderon,D., et al., Cell, 39:499-509 (1984)) was attached to the carboxy-terminus of the cDNA construct encoding nGFP and subcloned into the pLXSN retroviral vector (Clontech, Palo Alto, Calif.). The plasmid harboring the retroviral construct was transiently transfected into the packaging cell line Phoenix Eco (Grignani, F. et al., Cancer Res. 58:14-19 (1998)) using SuperFect (Qiagen, Santa Clarita, Calif.). Supernatants containing retroviral particles were collected 24-48 h after transfection, and used immediately to infect cell cultures. Subconfluent MLO-Y4 osteocytic cells were exposed to viral supernatants in the presence of 8 μg/ml polybrene for 8 h and then incubated in fresh culture medium for 16 hours. Subsequently, cells were exposed to the supernatants containing the viral particles once more before being trypsinized and plated at low density. Transduced cells were selected by culturing them in the presence of 400 μg/ml of geneticin (G418, Sigma Chemical Co., St. Louis, Mo.) for three weeks (Plotkin,L. I., et al., J. Clin. Invest. 104:1363-1374 (1999)).
as §1
Following the treatment with the pro-apoptotic agents, cells were fixed for 8 minutes with neutral buffer formalin and stored at 4° C. until analyzed.
Cells were transiently transfected using Lipofectamine Plus (Gibco BRL, Gaithersburg, Md.) as previously described (Plotkin,L. I. et. al., J. Biol.Chem. 277:8648-8657 (2002) and Kousteni, S. et al., Cell, 104:719-730 (2001)). Briefly, cells were cultured in the absence of serum or antibiotics for 3 hours in the presence of 20 μl/ml Plus reagent and 10 μl/ml Lipofectamine together with […] of each of the following DNA constructs: pCDNA3 vector (obtained from Clontech, Palo Alto, Calif.), wild type FAK (provided by Dr. Sandro Aruffo, Bristol-Myers Squibb Pharmaceutical Research Institute, Princeton, N.J. (Chan,P. Y. et al., Methods Mol Biol. 2000.;99.(1.):109.-25. 269:20567-20574 (1994)), or wild type Pyk2, kinase deficient Pyk2 mutant or autophosphorylation deficient Pyk2 mutant (provided by Dr. Wen-Cheng Xiong, University of Alabama at Birmingham, Birmingham, Ala. (Xiong,W. and Parsons,J. T., J Cell Biol 139:529-53(1997)).

caspase 3 = assay: Caspase 3 sensor protein localisation in osteocytic cells; type: cell-based; details: nuclear in apoptotic cells
Pyk2 = Pyk2 Y402 phosphorylation by Western blotting; type: cell-based, murine; details: four independent experiments

SMILES | effect on dexamethasone-induced changes in cell attachment (MLO-Y4 osteocytic cells [1]; inhibitor added 30 minute before dexamethasone 10^−6 M) | effect on dexamethasone (glucocorticoid)-induced apoptosis (MLO-Y4 osteocytic cells [2]; 6 hour treatment) | caspase 3 activity (caspase 3) | number of cells exhibiting three or less cytoplasmic processes (cell attachment) (MLO-Y4 osteocytic cells [1]; dexamethasone: as early as after 1 h, etoposide: duration of the experiment) | changes in cell attachment after knocking down Pyk2 expression (MLO-Y4 osteocytic cells [1]; siRNA for murine Pyk2, 6 hours) | phosphorylation of Pyk2 in Y402 (Pyk2) | time at which Pyk2 Y402 phosphorylation declined to basal levels (Pyk2) [min] | time of maximal Pyk2 Y402 phosphorylation (Pyk2) [min] | apoptosis (nuclear fragmentation and chromatin condensation) (MLO-Y4 osteocytic cells [2]; 6 hours of treatment, dexamethasone 10^−6 M, etoposide 50 μM) | responsiveness after Pyk2 knock down and expression of Pyk2 K- (MLO-Y4 osteocytic cells [2]; human Pyk2-GFP kinase deficient) | responsiveness after Pyk2 knock down and expression of wild type Pyk2 (MLO-Y4 osteocytic cells [2]; human Pyk2-GFP wild type) | apoptosis after knocking down Pyk2 expression (MLO-Y4 osteocytic cells [2]; siRNA for murine Pyk2, 6 hours) | proapoptotic effect (MLO-Y4 osteocytic cells [2]; three hours of treatment) | apoptosis in cells overexpressing FAK (MLO-Y4 osteocytic cells [2]; transient transfection wild type FAK, 6 hours) | apoptosis in cells overexpressing Pyk2 (MLO-Y4 osteocytic cells [2]; transient transfection wild type Pyk2, 6 hours) | apoptosis in cells transfected with wild type Pyk2 vector (MLO-Y4 osteocytic cells [2]; transient transfection, co-transfected nGFP, 6 hours) | proapoptotic response in cells overexpressing either Pyk2 mutant (K-, Y402F) (MLO-Y4 osteocytic cells [2]; transient transfection, 6 hours) | effect on etoposide-induced apoptosis (MLO-Y4 osteocytic cells [2]; inhibitor added before etoposide 50 μM, 6 hour treatment)
Oc1c2ccccc2c2c3c(cccc13)N=N2 [SP600125] | prevented | blocked | – | – | – | – | – | – | – | – | – | – | – | – | – | – | – | –
C[C@@H]1C[C@H]2[C@@H]3CCC4=CC(=O)C=C[C@]4(C)[C@@]3(F)[C@@H](O)C[C@]2(C)[C@@]1(O)C(=O)CO [dexamethasone] | – | – | increases | increased significantly | abolished | induced rapid phosphorylation | ≤ 30 | 10 | induced apoptosis | but not | restored the responsiveness | abolished | already observed at three hours | protected | remained responsive | exhibited apoptosis | lost the proapoptotic response | –
CC#C[C@]1(O)CC[C@H]2[C@@H]3CCC4=CC(=O)CCC4=C3[C@@H](c3ccc(N(C)C)cc3)C[C@@]21C [RU486] | – | prevented | – | – | – | – | – | – | – | – | – | – | – | – | – | – | – | not affected
